Experiment [1] deals with T1, FLAG-PDCD4 expressed in MEFs (UniProt Q53EL6).
T1 sequence: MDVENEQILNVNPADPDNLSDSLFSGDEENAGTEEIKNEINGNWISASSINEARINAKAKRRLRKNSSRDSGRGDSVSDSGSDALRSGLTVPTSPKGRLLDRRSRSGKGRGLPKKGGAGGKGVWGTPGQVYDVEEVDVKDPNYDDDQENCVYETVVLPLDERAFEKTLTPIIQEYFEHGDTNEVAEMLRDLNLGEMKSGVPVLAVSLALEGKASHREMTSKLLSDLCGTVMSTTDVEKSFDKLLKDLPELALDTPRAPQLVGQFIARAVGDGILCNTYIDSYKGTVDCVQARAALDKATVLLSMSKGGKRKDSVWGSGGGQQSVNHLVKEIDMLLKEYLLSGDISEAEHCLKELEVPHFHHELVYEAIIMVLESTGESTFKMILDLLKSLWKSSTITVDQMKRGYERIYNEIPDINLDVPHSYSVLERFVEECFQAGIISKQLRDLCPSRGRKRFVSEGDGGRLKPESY
Nature of the experiment: co-IP; FLAG co-IP from wild-type MEFs and S6K1 and 2 double knockout MEFs expressing FLAG-PDCD4 or FLAG-tag; Western blot. In general terms: A western blot detects proteins with antibodies after separation by electrophoresis.

Sequences of proteins named here, by UniProt entry; tags and fusion partners are left off.
UniProt Q9DCH4: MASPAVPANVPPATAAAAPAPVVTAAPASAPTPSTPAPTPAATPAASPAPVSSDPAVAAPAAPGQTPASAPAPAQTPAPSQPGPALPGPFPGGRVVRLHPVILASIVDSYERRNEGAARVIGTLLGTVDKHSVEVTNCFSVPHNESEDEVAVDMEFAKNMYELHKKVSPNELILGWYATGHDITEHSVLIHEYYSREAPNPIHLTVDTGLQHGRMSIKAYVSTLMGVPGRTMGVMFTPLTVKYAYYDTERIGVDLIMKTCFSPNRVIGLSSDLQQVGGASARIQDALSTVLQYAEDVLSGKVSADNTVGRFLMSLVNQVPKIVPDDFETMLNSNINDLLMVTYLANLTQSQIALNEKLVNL

In experiment [2] the target is T2, PAIP1, endogenous (human (endogenous in U343)) (UniProt Q9H074).
T2 sequence: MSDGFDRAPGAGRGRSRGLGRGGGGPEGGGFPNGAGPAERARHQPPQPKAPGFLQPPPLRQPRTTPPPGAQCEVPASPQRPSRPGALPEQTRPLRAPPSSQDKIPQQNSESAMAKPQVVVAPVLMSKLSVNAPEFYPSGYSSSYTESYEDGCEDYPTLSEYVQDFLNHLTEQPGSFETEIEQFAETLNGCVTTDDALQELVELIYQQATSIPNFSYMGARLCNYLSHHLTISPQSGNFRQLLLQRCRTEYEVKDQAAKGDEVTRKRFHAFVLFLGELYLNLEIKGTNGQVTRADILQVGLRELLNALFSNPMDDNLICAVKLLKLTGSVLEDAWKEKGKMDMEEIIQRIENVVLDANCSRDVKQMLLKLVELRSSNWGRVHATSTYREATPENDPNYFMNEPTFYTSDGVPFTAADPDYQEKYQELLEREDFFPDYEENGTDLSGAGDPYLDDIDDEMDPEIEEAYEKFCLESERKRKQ
Nature of the experiment: co-IP; reciprocal IP: eIF3F antibody (PAIP1 antibody as negative control) on protein G Dynabeads, lysate prepared as for FLAG-immunoprecipitation (U343 transfected with FLAG-PDCD4, formaldehyde treated, RIPA), 4 h at 4 °C; Western blot.

Here are results for two molecules from publication PMC13163806.

These are yes or no findings as the source states them, for the method shown. In cells and extracts the contact can be indirect. Sequences can lack the tags named with a protein.

In the case of “eIF3F, endogenous in MEFs (from UniProt Q9DCH4 1-361)”, in experiment [1], the binding result was “no binding”.

B1: FLAG-PDCD4 expressed in U343 cells (protein, UniProt Q53EL6 1-469)
chain: MDVENEQILNVNPADPDNLSDSLFSGDEENAGTEEIKNEINGNWISASSINEARINAKAKRRLRKNSSRDSGRGDSVSDSGSDALRSGLTVPTSPKGRLLDRRSRSGKGRGLPKKGGAGGKGVWGTPGQVYDVEEVDVKDPNYDDDQENCVYETVVLPLDERAFEKTLTPIIQEYFEHGDTNEVAEMLRDLNLGEMKSGVPVLAVSLALEGKASHREMTSKLLSDLCGTVMSTTDVEKSFDKLLKDLPELALDTPRAPQLVGQFIARAVGDGILCNTYIDSYKGTVDCVQARAALDKATVLLSMSKGGKRKDSVWGSGGGQQSVNHLVKEIDMLLKEYLLSGDISEAEHCLKELEVPHFHHELVYEAIIMVLESTGESTFKMILDLLKSLWKSSTITVDQMKRGYERIYNEIPDINLDVPHSYSVLERFVEECFQAGIISKQLRDLCPSRGRKRFVSEGDGGRLKPESY
In the case of B1, the binding result in experiment [2] was “no binding”.
